Screen size: about 52,000 sequences; about 210 (0.4%) were called active.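 Rule for the calls: active = gene whose silencing raises cell survival under the drug, median off-target-corrected z-score across its silencing RNAs 2 or more; inactive = the rest.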 Some of the results follow.

A short description of the experiment: Resistance to Poly (ADP-Ribose) Polymerase inhibitor: Gene Identification via Genome-wide siRNA Screen. As to conditions: mouse BRCA2 R2336H ES cells, olaparib, CellTiter-Glo viability; stronger effect = higher value. The method, boiled down:
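Genome-wide siRNA screen (3 siRNAs/gene, 20 nM) in mouse ES cells carrying hypomorphic BRCA2 R2336H; olaparib 500 nM added 48 h post-transfection, CellTiter-Glo viability 72 h later. Normalized to plate-median negative control; MAD z-scores, gene median, seed-adjusted.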
(In general: In ATP-based viability assays light output follows the ATP content of the culture.)
Take “GCUCGCACAUUUGACUUGGTT against 4833422F06Rik”: the z-score is inactive: 1.41.
As to GGAUCGUGUGGAACACCUCTT against BC060632, the z-score is inactive: -0.043.
As for GCAUUAUCAACCGGAUUGATT against Rgs19ip3, the figure is inactive: -0.325; as for GGUGAUCUACUACAGGAAUTT against Fcer1a, inactive: -0.822; as for “GGUUUACCAGAAACACUGATT against 2310056P07Rik”, inactive: 0.102.
In the case of GGGAGAGGCAACCUGUAUCTT against Chchd1 it was inactive: 0.115; in that of CCCUAGUCUCUCUUCAAUCTT against Prss2, inactive: -0.775; in that of GGAUGAGGAGGAAAAGCUGTT against Nol1, inactive: -0.634.
On to GGUCAAUACCAUGUGUAUUTT against Rev1l, for which the z-score is inactive: -0.568.
Regarding “GGCAUGGAUCCUGAAAAACTT against 4932416N17Rik”, the z-score is inactive: -0.877.
In the case of GGUGCAUCACCAGAACUCGTT against Ch25h, the z-score is inactive: 0.885.
In the case of CCAAAACGUGCAACACAAUTT against Cops6 it was inactive: -2.34; in that of GGCUGCUCAUACGAUUAAUTT against Nek11, inactive: 1.58; in that of GGAUGGAAUCAUUUGUAGCTT against Apba3, inactive: -0.878.
With GGAUCUUAGAGAUGAUUACTT against Tmem20, the z-score was inactive: 0.467.
GGCAUUCCUCGGAAGUCAATT against Smad7: the z-score was inactive: 2.41.
As for “GGAUAUGUGUUCAUCCUGUTT against 4930442L21Rik”, the figure is inactive: 0.741; as for UGGAAUAAUUACCCAUGCUTT against LOC544988, inactive: 0.0658.
As to CCUGAUACCACGACAAGAATT against Daf2, the z-score is inactive: 0.0625.
For the sequence GCAAAGAAGUUGGGAUAUCTT against Rad51c, the z-score is inactive: -3.
Take GGAGCAGAGGCUACAAAGATT against Prc1: the z-score is inactive: -3.16.
In the case of GGAGUGAUCAUCUAUAAUUTT against Rnf133 it was inactive: 0.704; in that of GGUCGAGAGAAACGGAACUTT against Lrrc3, inactive: 1.43; in that of CCAUACGAACAGACAUUUUTT against Tcn2, inactive: -1.4.
In the case of GGGUCCAUGACAAUUCACATT against Rhbg it was inactive: -1.01; in that of GGACAAUGUAUGGAUCCCATT against Pilra, inactive: -0.733.
For the sequence “GGCAAUUAUUCGUGUCUUATT against 4930449I24Rik”, the z-score is inactive: -0.508.
With GCUGGUUUACCAAAACAUATT against Gna14, the z-score was inactive: 1.02.
As for “GCACUUCCCUCCCUAUGCATT against 0610037P05Rik”, the figure is inactive: -1.25.
With GCAUUAUGGGCUUUUAUGATT against Dnaja1, the z-score is inactive: 0.638.
As for GCAACACACCAUAUCAGGATT against Tas2r135, the figure is inactive: -0.137; as for GGAUGCAUUUCUGAGCCACTT against Tacc2, inactive: -1.28.
As for “GUCAUCGCUCCCAAGAAGGTT against D8Ertd738e”, the figure is inactive: 0.0227.
In the case of GGGCACAAGGUCAUAACUGTT against Piga it was inactive: -0.841; in that of GGUGUAGAAUAGGACAAAUTT against Ntsr2, inactive: -0.114; in that of GGCAACAUUGAUCAAGUGGTT against Sitpec, inactive: -0.797.
For the sequence “GCUUACAAGGCAUGUAUGATT against E430018M08Rik”, the z-score was inactive: 0.2.
In the case of GGAAUCAGUGACCUUUUUCTT against Arf2 it was inactive: -2.16; in that of GGCUCUGGAUAAUUACUAUTT against Eif1a, inactive: -0.369.
As for GGAGACAACAGAUUUCCUGTT against Bcl2l12, the figure is inactive: 1.03.
Regarding GGUUUACCUCUAUGCUAUGTT against Upk3a, the z-score is inactive: 2.04.
For the sequence GGGCCACCCAAAACAUCUUTT against V1rc27, the z-score was inactive: 0.67.
Regarding CGAACAUUUCAUCUGAUGATT against Ntrk2, the z-score is inactive: 0.337.
In the case of CCCAAUUUGAUUAUAGGUUTT against Olfr1243 it was inactive: 0.1.
With GCCCUUGAUUGACAAGGAATT against Mrps7, the z-score was inactive: 1.33.
In the case of GGUUUGGCAAAGAAACACATT against Itpa it was inactive: -1.77.
As for UCGUGUGCCUGAUGAUCACTT against Abcc5, the figure is inactive: 0.94; as for GAGAGAUUGAGCUUGAAAGTT against Fxc1, inactive: 0.941; as for GGACAUUGAACAACACUAUTT against Krt1-9, inactive: -0.0349.
As for GCCCACCGACUUUAUUAACTT against Tcfap2d, the figure is inactive: 1.35; as for “GCCCUACCCUCAUCAUAAATT against 2310067B10Rik”, inactive: 0.557; as for AUGCACCAUGCCAUUGACCTT against Oxct2a, inactive: 1.51.
On to GGAGUCUGCUCUCAUUCUUTT against Slc30a1, for which the z-score is inactive: 0.953.
In the case of GGCCACAAACAGAAUUAUCTT against Mrpl2 it was inactive: 0.421; in that of GGAUCCACACAUAUGAGGATT against Rdhs, inactive: 1.29.
GGCAGAACACAGUUCGAUCTT against Ckap1: the z-score was inactive: -0.843.
In the case of CGACUUUUCUCAUUAUGAGTT against Ythdf1 it was inactive: 0.575.
In the case of “GGCACUCCUAAUCCUUUCCTT against 9430077A04Rik” it was inactive: 0.967; in that of “GGAAUUUGUACCAUGUAUCTT against MGI:2153084”, inactive: 1.43.
GGUGAUUGGCUGGAUCUACTT against Ctns: the z-score is inactive: -2.07.
Turning to GGCUGAUGUAAUCUCUAAATT against Slc9a8, the z-score was inactive: -0.954.
In the case of GGUCUUCCAGAACAAUUACTT against Prtn3 it was inactive: -0.437; in that of GGAGAUGAGGUGAAGUGGATT against BC048390, inactive: -0.237; in that of GGACUGACACGGGUGUCUUTT against AI480653, inactive: -0.582.
As for GGAUGACCUACGAGUGUUATT against Taf5, the figure is inactive: -1.25.
In the case of “GGCGAGGAGAACAUGCUGUTT against 3632410F03Rik” it was inactive: -0.0629.
In the case of “GGCUUUAGGUAGUAGUCUCTT against 2310037I24Rik”, the z-score is inactive: 0.0847.
For the sequence GGAUCUAUAGAAUAGCUCUTT against Rnpc2, the z-score is inactive: -0.218.
As to GGCCACCAAGAAAUUCAAATT against Cd22, the z-score is inactive: 0.766.
As for GGAACAAUACAUCGACACUTT against Grin2c, the figure is inactive: 0.303; as for GGAGUUUGCAAAAAAUUCUTT against Olfr294, inactive: 0.463; as for CGAGCCCAUGUCAGAUCAGTT against AF529169, inactive: -1.18.
In the case of CGAAUGCUGUACUUCAAAATT against Fsip1 it was inactive: 1.37; in that of GCAGAUUUGCACUGAAUCATT against Ndrg3, inactive: 0.994.
As for “GGCCAAUGCCCUUUUUUGATT against 4933402P03Rik”, the figure is inactive: 0.995; as for GGUAGAGGUGGAAUGUAGCTT against Qprt, inactive: -0.11; as for “GGACCUGGAGCUGAGAAGATT against 2310042P20Rik”, inactive: -1.48.
Regarding GAAAGCGGAGAUACUGGAGTT against Hes7, the z-score is inactive: 0.873.
As to GGAGCUGAGCUCUCAGAAGTT against Ga17, the z-score is inactive: -2.72.
In the case of CCAAGCUUAGCAAGGAGUATT against Cyp2f2 it was inactive: -0.178; in that of CCAAGAAUUACCACUUAUCTT against Phf11, inactive: -0.949.
As for GGUCUUCAACGAAACCAACTT against Ly6g6c, the figure is inactive: 1.41.
As to CCUCUCUACAUCCACUACUTT against Pogz, the z-score was inactive: -0.312.
On to GGGCCAAGAGCUUCUUUGATT against Ahr, for which the z-score was inactive: -0.431.
In the case of CGAUCUACAUCUGCAUCAUTT against Olfr1212 it was inactive: -0.961; in that of GCUCGAGAACAGUACCAUUTT against Hlcs, inactive: -0.152.
As for GGCAGCAUUGCAAUUUCUATT against AK122209, the figure is inactive: -0.0613; as for GGACCAGCUGGACAAAAGATT against Zfp238, inactive: -2.9; as for GGGUCUUUAUAAGUCUAUGTT against Kbtbd2, inactive: -0.817.
As to “GGCAGGAAUGACUCCUUUUTT against 2410001C21Rik”, the z-score is inactive: -0.605.
In the case of CCAUGGUCUAGCACAGUGGTT against Cpn2 it was inactive: 0.172.
With GUGUUCGAACAACAUUGUATT against Map3k7, the z-score is inactive: -0.0698.
Turning to GGAAUGGACAAAAUGAUUCTT against Cct4, the z-score is inactive: -0.0758.
On to “GGAAAUCAGAACUGUAUCUTT against 2310022B05Rik”, for which the z-score is inactive: 0.686.
In the case of GGAUCAAGAAUUAGAAAAGTT against Abcc9 it was inactive: -0.216; in that of GAGUUCUCUCUCACAGCCCTT against Gp1bb, inactive: -1.01; in that of GCGUGAACGUAUUUGUUACTT against Pcdhgc3, inactive: -0.183.
CCUACCAUAGCAACACUAUTT against Kcna2: the z-score was inactive: -1.18.
With CGUAUGUGCCUUACAUGCUTT against C85492, the z-score is inactive: 1.52.
In the case of GCCCUUCGGGACUUUAUUGTT against Gusb it was inactive: -0.873; in that of GGUAUUGGACAAUCAGAUATT against Cit, inactive: 1.76; in that of GCUAUGAAAGAGGGAAGCUTT against Cyp2c54, inactive: 0.19.
In the case of GGGCAGGGAGAAAAAAAAATT against BC024561 it was inactive: 0.896; in that of GGGUGAAAGACAGAGGACATT against BC006705, inactive: -2.81; in that of GGGAUGACUUGUUCACAUCTT against Htf9c, inactive: -0.86.

Source of the values: PubChem BioAssay AID1347423 (Functional Genomics Laboratory (NCATS/FGL), 2020).
